# In the supplement of paper PMC8728848:
# Some of the results follow.
# B1: Aap lectin (Staphylococcus epidermidis) (protein)
# chain: VNLNYSSPFMSLLSMPADSSSNNTKNTIDIPPTTVKGRDNYDFYGRVDIESNPTDLNATNLTRYNYGQPPGTTTAGAVQFKNQVSFDKDFDFNIRVANNRQSNTTGADGWGFMFSKKDGDDFLKNGGILREKGTPSAAGFRIDTGYYNNDPLDKIQKQAGQGYRGYGTFVKNDSQGNTSKVGSGTPSTDFLNYADNTTNDLDGKFHGQKLNNVNLKYNASNQTFTATYAGKTWTATLSELGLSPTDSYNFLVTSS
# Assays:
# Test in all cases: glycan array binding signal (z-score within array); higher = stronger binding
# Settings in all cases: glycan notation: IUPAC condensed, linker removed
# [1] = target: GalNAc(b1-4)GlcNAc(b1-2)Man
# In short: (§1)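 Columns mapping to the same glycan were averaged after glycan names were converted to IUPAC-condensed notation. The data come from 3228 arrays in the Consortium for Functional Glycomics database, limited to those with an available protein sequence. Binding is reported as a within-array Z-score averaged across arrays of one protein sequence and across linkers.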
# [2] = target: GalNAc(b1-4)GlcNAc(b1-2)Man(a1-3)[GalNAc(b1-4)GlcNAc(b1-2)Man(a1-6)]Man(b1-4)GlcNAc(b1-4)GlcNAc
# In short: as §1
# [3] = target: GalNAc(b1-4)GlcNAc(b1-3)GalNAc(b1-4)GlcNAc
# In short: as §1
# GalNAc(b1-4)GlcNAc6S = target: GalNAc(b1-4)GlcNAc6S
# In short: as §1
# GalNAc(b1-6)GalNAc = target: GalNAc(b1-6)GalNAc
# In short: as §1
# GalNAc3S(b1-4)GlcNAc = target: GalNAc3S(b1-4)GlcNAc
# In short: as §1
# GalNAc3S(b1-4)GlcNAc3S = target: GalNAc3S(b1-4)GlcNAc3S
# In short: as §1
# [4] = target: GalNAc3S(b1-4)[Fuc(a1-3)]GlcNAc
# In short: as §1
# GalNAc4S6S(b1-4)GlcNAc = target: GalNAc4S6S(b1-4)GlcNAc
# In short: as §1
# GalNAc6S(b1-4)GlcNAc = target: GalNAc6S(b1-4)GlcNAc
# In short: as §1
# Glc(a1-4)Glc = target: Glc(a1-4)Glc
# In short: as §1
# [5] = target: Glc(a1-4)Glc(a1-4)Glc(a1-4)Glc
# In short: as §1
# Glc(a1-6)Glc(a1-6)Glc = target: Glc(a1-6)Glc(a1-6)Glc
# In short: as §1
# [6] = target: Glc(a1-6)Glc(a1-6)Glc(a1-6)Glc
# In short: as §1
# Glc(b1-4)Glc = target: Glc(b1-4)Glc
# In short: as §1
# Glc(b1-6)Glc = target: Glc(b1-6)Glc
# In short: as §1
# GlcA(b1-3)Gal = target: GlcA(b1-3)Gal
# In short: as §1
# GlcA(b1-3)GlcNAc = target: GlcA(b1-3)GlcNAc
# In short: as §1
# GlcA(b1-6)Gal = target: GlcA(b1-6)Gal
# In short: as §1
# [7] = target: GlcA3S(b1-3)Gal(b1-4)GlcNAc(b1-2)Man
# In short: as §1
# [8] = target: GlcA3S(b1-3)Gal(b1-4)GlcNAc(b1-3)Gal(b1-4)Glc
# In short: as §1
# [9] = target: GlcNAc(a1-3)Gal(b1-4)GlcNAc
# In short: as §1
# [10] = target: GlcNAc(a1-4)Gal(b1-3)GlcNAc
# In short: as §1
# [11] = target: GlcNAc(a1-4)Gal(b1-4)GalNAc
# In short: as §1
# [12] = target: GlcNAc(a1-4)Gal(b1-4)GlcNAc
# In short: as §1
# [13] = target: GlcNAc(a1-4)Gal(b1-4)GlcNAc(b1-3)Gal(b1-4)Glc
# In short: as §1
# [14] = target: GlcNAc(a1-4)Gal(b1-4)GlcNAc(b1-3)Gal(b1-4)GlcNAc
# In short: as §1
# [15] = target: GlcNAc(a1-4)Gal(b1-4)GlcNAc(b1-3)Gal(b1-4)GlcNAc(b1-3)Gal(b1-4)GlcNAc
# In short: as §1
# [16] = target: GlcNAc(a1-4)Gal(b1-4)GlcNAc(b1-3)Gal(b1-4)[Fuc(a1-3)]GlcNAc(b1-3)Gal(b1-4)[Fuc(a1-3)]GlcNAc
# In short: as §1
# [17] = target: GlcNAc(a1-6)Gal(b1-4)GlcNAc
# In short: as §1
# [18] = target: GlcNAc(b1-2)Gal(b1-3)GalNAc
# In short: as §1
# [19] = target: GlcNAc(b1-2)Man(a1-3)[GlcNAc(b1-2)Man(a1-6)]Man(b1-4)GlcNAc(b1-4)GlcNAc
# In short: as §1
# [20] = target: GlcNAc(b1-2)Man(a1-3)[GlcNAc(b1-2)Man(a1-6)]Man(b1-4)GlcNAc(b1-4)[Fuc(a1-6)]GlcNAc
# In short: as §1
# [21] = target: GlcNAc(b1-2)Man(a1-3)[GlcNAc(b1-4)][GlcNAc(b1-2)Man(a1-6)]Man(b1-4)GlcNAc(b1-4)GlcNAc
# In short: as §1
# [22] = target: GlcNAc(b1-2)Man(a1-3)[GlcNAc(b1-4)][GlcNAc(b1-2)Man(a1-6)]Man(b1-4)GlcNAc(b1-4)[Fuc(a1-6)]GlcNAc
# In short: as §1
# [23] = target: GlcNAc(b1-2)[GlcNAc(b1-4)]Man(a1-3)[GlcNAc(b1-2)Man(a1-6)]Man(b1-4)GlcNAc(b1-4)GlcNAc
# In short: as §1
# [24] = target: GlcNAc(b1-2)[GlcNAc(b1-4)]Man(a1-3)[GlcNAc(b1-4)][GlcNAc(b1-2)Man(a1-6)]Man(b1-4)GlcNAc(b1-4)GlcNAc
# In short: as §1
binder,measurement,setting,value
B1,glycan array binding signal (z-score),[1],-0.244
same,glycan array binding signal (z-score),[2],3.29
same,glycan array binding signal (z-score),[3],-0.634
same,glycan array binding signal (z-score),GalNAc(b1-4)GlcNAc6S,-0.012
same,glycan array binding signal (z-score),GalNAc(b1-6)GalNAc,-0.898
same,glycan array binding signal (z-score),GalNAc3S(b1-4)GlcNAc,-0.889
same,glycan array binding signal (z-score),GalNAc3S(b1-4)GlcNAc3S,0.576
same,glycan array binding signal (z-score),[4],0.202
same,glycan array binding signal (z-score),GalNAc4S6S(b1-4)GlcNAc,-0.78
same,glycan array binding signal (z-score),GalNAc6S(b1-4)GlcNAc,-0.855
same,glycan array binding signal (z-score),Glc(a1-4)Glc,0.319
same,glycan array binding signal (z-score),[5],-0.004
same,glycan array binding signal (z-score),Glc(a1-6)Glc(a1-6)Glc,-0.88
same,glycan array binding signal (z-score),[6],-0.508
same,glycan array binding signal (z-score),Glc(b1-4)Glc,-0.446
same,glycan array binding signal (z-score),Glc(b1-6)Glc,-0.787
same,glycan array binding signal (z-score),GlcA(b1-3)Gal,0.27
same,glycan array binding signal (z-score),GlcA(b1-3)GlcNAc,0.647
same,glycan array binding signal (z-score),GlcA(b1-6)Gal,1.04
same,glycan array binding signal (z-score),[7],-0.428
same,glycan array binding signal (z-score),[8],-0.088
same,glycan array binding signal (z-score),[9],-0.453
same,glycan array binding signal (z-score),[10],0.32
same,glycan array binding signal (z-score),[11],0.605
same,glycan array binding signal (z-score),[12],2.69
same,glycan array binding signal (z-score),[13],-0.548
same,glycan array binding signal (z-score),[14],0.14
same,glycan array binding signal (z-score),[15],-0.091
same,glycan array binding signal (z-score),[16],0.862
same,glycan array binding signal (z-score),[17],0.245
same,glycan array binding signal (z-score),[18],-0.754
same,glycan array binding signal (z-score),[19],-0.868
same,glycan array binding signal (z-score),[20],2.72
same,glycan array binding signal (z-score),[21],-0.698
same,glycan array binding signal (z-score),[22],-0.679
same,glycan array binding signal (z-score),[23],0.373
same,glycan array binding signal (z-score),[24],-0.168

# Quoted at random: two records from the list
binder,measurement,setting,value
B1,glycan array binding signal (z-score),GalNAc(b1-6)GalNAc,-0.898
same,glycan array binding signal (z-score),[11],0.605
